Source: US20090263341A1, “SOFT ANTICHOLINERGIC ESTERS” (priority 2005, published 2009)
Structures were worked out from names or drawings and are uncertain.

Tested on: guinea pig ileum longitudinal muscle strips
Experiment: Guinea pig ileum longitudinal muscle assay, pA2 against acetylcholine (Schild plot)
Settings: tissue samples from four animals; tested form: Br

With `CCCCCCCCOC(=O)C[N+]1(C)CCC(OC(=O)C(O)(c2ccccc2)C2CCCC2)C1` (stereo not shown) the “pA2, Ileum” value was 6.64.
